The assay can be described thus: qHTS Assay to Find Inhibitors of Chronic Active B-Cell Receptor Signaling. The following applies: ABC-DLBCL IkBa-CBG/CBR reporter, luminescence ratio (green luciferase fused to IkBa over red control in TMD8 lymphoma cells), 4 h. In short, it runs like this: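 Cell line TMD8 (human ABC DLBCL), stably expressing tet-inducible CBG68-IkBa fusion and CBR; IMDM/0.5% FBS; cpd up to 46 uM; dox induction, 4 h, 37C/5% CO2; dual luminescence; green/red ratio; MG132 control.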
(In general: Quantitative high-throughput screening tests each substance at several concentrations.)

Setting [1] is: measured here: CBR red luminescence, cell number.
Where [2] appears, read: measured here: IkBa-CBG green luminescence.

Some of the results follow. The main result of the screen is listed elsewhere. These columns were measured beside it and carry no call. Compounds called inactive in the main read-out are mostly missing here. Words in brackets tell the shape of the fitted curve; partial curves, single points and poor fits give uncertain potencies.

What is called AC50 is the midpoint of the concentration-response curve, whichever way the signal moves.

Take `Cc1ccc(S(=O)(=O)N2CCC(c3nc4c(nnn4Cc4ccccc4)c(=O)[nH]3)CC2)cc1`: the concentration at half-maximal activity (AC50) under setting [1] was 35.5 µM [falling, single point].
Still for that read-out and setting: for `CC(=O)c1ccc2c(c1)C1C=CCC1C(c1ccc(S(=O)(=O)N3CCOCC3)cc1)N2` (stereo not drawn) the value was 0.00411 µM [falling, full curve, poor fit].
On to `Cc1c(-n2cccc2C=O)cccc1[N+](=O)[O-]`, for which the AC50 under setting [1] was 3.16 µM [rising, partial curve, poor fit].
Turning to `O=C(Cc1ccc(Cl)cc1)NCCS(=O)(=O)N1CCN(c2ccccc2F)CC1`, the AC50 under setting [2] is 32.6 µM [falling, partial curve, poor fit].
Regarding `CCN(CC)Cc1c(O)ccc2c(=O)c(-c3ccc4c(c3)OCCO4)coc12`, the AC50 under setting [1] was 6.51 µM [rising, partial curve, poor fit].
Turning to `O=C(Nc1cccc2nsnc12)c1ccc2c(c1)OCCO2`, the AC50 under setting [1] is 12.6 µM [falling, partial curve, poor fit].
Regarding `CC1(C)Cc2c(sc3nc(SCC(=O)O)[nH]c(=O)c23)CO1`, the AC50 under setting [1] was 35.5 µM [rising, partial curve, poor fit].
Consider `S=c1sc2c(Cl)ncnc2n1-c1ccccc1`, for which the concentration at half-maximal activity (AC50) by setting is: under setting [1], 35.5 µM [rising, single point]; under setting [2], 35.5 µM [falling, single point].
For the molecule `CC(C)c1nnc(NC(=O)c2cccs2)s1`, the AC50 under setting [1] is 18.4 µM [falling, partial curve, poor fit].
The same measure, in the same setting: then `Cc1cc(NC(=O)CCC(=O)N(c2ccccc2)C(C(=O)NC2CCCC2)c2ccncc2)no1` (stereo not drawn), with 14.1 µM [rising, partial curve, poor fit].
Regarding `COc1cc(/C=N/N(CCO)C2=NS(=O)(=O)c3ccccc32)cc(OC)c1OC`, under setting [1], the AC50 was 7.08 µM [rising, full curve, poor fit].
As to `Cc1[nH]n(-c2ccccc2)c(=O)c1Sc1ccc(Cl)cc1`, the concentration at half-maximal activity (AC50) under setting [1] is 20 µM [falling, single point].
Take `CC1CC(=O)Nc2ccccc2N1S(=O)(=O)c1cccc(Cl)c1` (stereo not drawn): the concentration at half-maximal activity (AC50) under setting [1] was 23.1 µM [rising, single point].
As to `C=CCNC(=O)c1csc(-c2ccccc2)n1`, under setting [1], the half-maximal activity concentration (AC50) was 11.2 µM [rising, partial curve, poor fit].
Take `COc1ccccc1N(C(=O)c1ccco1)C(C(=O)NC1CCCC1)c1ccncc1` (stereo not drawn): the half-maximal activity concentration (AC50) under setting [1] was 20 µM [falling, single point].
Consider `Cc1ccc(F)c([C@H]2C3C=CCC(c4ccccc4)C3C(=O)N2Cc2ccccc2)c1` (stereo partly drawn), for which the half-maximal activity concentration (AC50) under setting [1] was 5.62 µM [falling, single point].
For the molecule `CSCCC(NC(=O)c1ccccc1Cl)C(=O)N1CCN(C(c2ccccc2)c2ccccc2)CC1` (stereo not drawn), under setting [1], the half-maximal activity concentration (AC50) was 35.5 µM [falling, single point].
Regarding `CCN(CC)c1ccc(/C=C/c2ccc3ccc(OC)cc3[n+]2CC)cc1`, under setting [1], the half-maximal activity concentration (AC50) is 35.5 µM [falling, single point].
For `O=C(C[C@H]1C/C=C\C[C@H](NC(=O)OCC2c3ccccc3-c3ccccc32)C(=O)O[C@H](c2ccccc2)CNC1=O)N[C@H](CO)Cc1ccccc1`, under setting [1], the AC50 was 29.1 µM [falling, single point].
`O=C1OCCC1Sc1nnnn1-c1ccc(Cl)cc1` (stereo not drawn): the half-maximal activity concentration (AC50) under setting [1] was 7.08 µM [falling, partial curve].
`COc1cc(/C=N/Nc2ccc(Cl)c(C(=O)O)c2)ccc1OC(=O)c1ccco1`: the AC50 under setting [1] is 11.2 µM [falling, partial curve].
Still for that read-out and setting: then `N#C/C(=C\c1ccc(OCc2cccc(C(=O)O)c2)cc1)C(=O)NCc1ccco1`, with 8.91 µM [falling, partial curve].
Still for that read-out and setting: for `CN(C)CCCNC(=O)C[C@H]1C[C@H](C(=O)N2CCOCC2)[C@@]2(C)c3[nH]c4cc(-c5ccco5)ccc4c3CCN2C1=O` the value was 29.1 µM [rising, single point].
On to `Cc1ccc(S(=O)(=O)CCC(=O)Nc2nc(-c3ccncc3)cs2)cc1`, for which the AC50 under setting [1] was 12.6 µM [falling, single point].
Regarding `Cc1sc2nc(CN3CCOCC3)nc(NS(=O)(=O)c3cc(Cl)ccc3Cl)c2c1C`, under setting [1], the half-maximal activity concentration (AC50) was 25.9 µM [rising, single point].
Regarding `CNc1cc(N2CCCCCC2)ccc1[N+](=O)[O-]`, the AC50 under setting [1] was 22.4 µM [rising, partial curve, poor fit].
In the case of `Cc1ccc(CN2CCN(/N=C/c3ccc(Cl)c([N+](=O)[O-])c3)CC2)cc1`, the AC50 under setting [1] is 20 µM [rising, partial curve, poor fit].
Same read-out and setting: then `COc1ccc(NC(=O)C(Cc2ccccc2)n2cccc2)cc1` (stereo not drawn), with 3.55 µM [rising, single point]; and `O=C(O)CCc1n[nH]c(=S)[nH]c1=O`, with 0.0164 µM [rising, full curve, poor fit].
Still for that read-out and setting: then `Cc1cc(SCC(=O)N/N=C/c2ccc(O)c(O)c2)nc2ccccc12`, with 17.8 µM [falling, single point]; and `Cc1nn(-c2ccccc2)c(Cl)c1C(=O)NCCCCNC(=O)c1c(C)nn(-c2ccccc2)c1Cl`, with 29.1 µM [falling, single point].
Same read-out and setting: then `CC(C)NC(=O)[C@]1(C)CCC[C@@]2(C)C3CC[C@@]4(C)C[C@]3(CCC21)CC4=O` (stereo partly drawn), with 25.9 µM [falling, single point]; and `CC(C)NC(=O)/C(C#N)=C/c1ccc2c(c1)OCCO2`, with 29.1 µM [falling, single point].
`COc1ccc(OCC(=O)N2CCN(C(=O)c3cccc4ccccc34)CC2)cc1`: under setting [1], the AC50 was 16.4 µM [rising, partial curve, poor fit].
With `COc1ccc(/C=N/NC(=O)c2[nH]c3ccc(Cl)cc3c2-c2ccccc2)c(C(=O)O)c1OC`, the AC50 reads like this: under setting [1], 3.98 µM [rising, full curve]; under setting [2], 3.55 µM [falling, full curve].
Consider `O=C(Nc1ccccn1)C1CCN(S(=O)(=O)c2ccc3ccccc3c2)CC1`, for which the AC50 under setting [1] is 32.6 µM [falling, partial curve, poor fit].
On the same count and under the same terms, for `COc1ccc(OC)c(NC(=O)CSc2nnc(-c3ccco3)n2-c2ccc(C(=O)O)cc2)c1` the value was 35.5 µM [falling, single point]; for `CCC(c1ccccc1)c1nc(-c2cccnc2)no1` (stereo not drawn), 4.61 µM [rising, full curve, poor fit].
Turning to `COc1cccc(CC(=O)OCC(=O)NCC(=O)Nc2cccc(C)c2C)c1`, under setting [1], the AC50 was 1.46 µM [falling, full curve].
`CC(C)(C)C(=O)[C@@H]1[C@@H]2C(=O)N(C3CCCCC3)C(=O)[C@@H]2[C@H]2c3ccccc3C=CN12`: under setting [1], the AC50 was 8.2 µM [falling, partial curve, poor fit].
As to `Cc1sc2nc(SCC(=O)NCc3ccco3)n(-c3ccccc3)c(=O)c2c1C`, under setting [1], the concentration at half-maximal activity (AC50) was 3.98 µM [rising, full curve, poor fit].
Consider `CC(C)[C@H](NC(=O)NC1CCN(Cc2ccccc2)CC1)C(=O)O`, for which the AC50 under setting [1] is 35.5 µM [rising, single point].
On the same count and under the same terms, then `C=CCNC(=S)NNC(=O)c1cc(-c2cccnc2)nc2ccccc12`, with 15.8 µM [falling, partial curve, poor fit].
As to `COc1ccc(NC(=S)Nc2cc(-c3ccccc3)[nH]n2)cc1Cl`, the concentration at half-maximal activity (AC50) under setting [1] was 29.1 µM [falling, single point].
Consider `Cc1ccc(NC(=O)Nc2cc(C)on2)cc1`, for which the AC50 under setting [1] is 2.51 µM [rising, partial curve].
On to `COc1ccc(C(C(=O)NC2CCCC2)N(Cc2ccccc2)C(=O)CNC(=O)c2ccco2)cc1` (stereo not drawn), for which the AC50 under setting [1] was 4.11 µM [rising, partial curve].
As for `CCOC(=O)/C=C/C(=O)Nc1cccc([N+](=O)[O-])c1`, the AC50 under setting [1] is 8.2 µM [falling, partial curve].
Consider `Cc1ccc(/C=C2\SC(=S)N(CCC(=O)NNS(=O)(=O)c3ccc(C)cc3)C2=O)cc1`, for which, under setting [1], the concentration at half-maximal activity (AC50) is 0.731 µM [falling, full curve].
`COc1ccc(OC)c(C2CC(=O)N3CN(c4cccc(Cl)c4C)CSC3=C2C#N)c1` (stereo not drawn): under setting [1], the AC50 is 32.6 µM [falling, single point].
On to `COc1cc(C2C(C#N)=C(N)Oc3cc(C)n(CCN4CCOCC4)c(=O)c32)cc(OC)c1OC` (stereo not drawn), for which, under setting [1], the AC50 is 35.5 µM [rising, single point].
On to `N#C/C(=C\c1cccc([N+](=O)[O-])c1)c1ccccn1`, for which, under setting [1], the half-maximal activity concentration (AC50) was 25.1 µM [falling, single point].
On to `O=C(c1cc(Br)ccc1O)N1CCN(S(=O)(=O)Cc2ccccc2)CC1`, for which, under setting [1], the concentration at half-maximal activity (AC50) is 1.46 µM [rising, single point].
Consider `O=C(N/N=C/c1ccc(O)c(O)c1O)/C(=C/c1ccc([N+](=O)[O-])cc1)NC(=O)c1ccccc1`, for which, under setting [1], the AC50 was 0.00461 µM [falling, full curve, poor fit].
Still for that read-out and setting: for `CCc1ccccc1NC(=O)c1cc(S(=O)(=O)N2CCc3ccccc32)ccc1F` the value was 15.8 µM [falling, single point]; for `Cc1ccc(Cl)cc1NC(=O)C1COc2ccccc2O1` (stereo not drawn), 3.98 µM [rising, full curve, poor fit]; for `Cc1cc(SCC(=O)NCC(c2cccs2)N2CCOCC2)c(C)cc1Br` (stereo not drawn), 25.9 µM [falling, partial curve].
Consider `Cn1c(=O)c2c(nc(CN3CCN(C(=O)c4ccco4)CC3)n2CC(=O)C(C)(C)C)n(C)c1=O`, for which, under setting [1], the half-maximal activity concentration (AC50) was 15.8 µM [rising, single point].
Turning to `Cc1cccc(N2CCN(C(=O)c3cccs3)CC2)c1C`, the AC50 under setting [1] is 35.5 µM [falling, single point].
The same measure, in the same setting: then `CCc1ccc(C(=O)NC2CCCCC2)s1`, with 8.91 µM [falling, partial curve, poor fit].
Still for that read-out and setting: then `CC(=O)c1sc(NC(=O)CS(=O)(=O)c2ccc(F)cc2)nc1C`, with 29.1 µM [falling, single point]; and `Cc1cc(Cl)ccc1NC(=S)NCC(C)C`, with 20.6 µM [rising, single point].

Source of the values: PubChem BioAssay AID493014 (National Center for Advancing Translational Sciences (NCATS), 2011).
